# Reference: article PMC6091019
# Chains of the proteins cited; added tags and fusions are not shown. Residues count along the entry.
# UniProt P02751, residues 32-2477: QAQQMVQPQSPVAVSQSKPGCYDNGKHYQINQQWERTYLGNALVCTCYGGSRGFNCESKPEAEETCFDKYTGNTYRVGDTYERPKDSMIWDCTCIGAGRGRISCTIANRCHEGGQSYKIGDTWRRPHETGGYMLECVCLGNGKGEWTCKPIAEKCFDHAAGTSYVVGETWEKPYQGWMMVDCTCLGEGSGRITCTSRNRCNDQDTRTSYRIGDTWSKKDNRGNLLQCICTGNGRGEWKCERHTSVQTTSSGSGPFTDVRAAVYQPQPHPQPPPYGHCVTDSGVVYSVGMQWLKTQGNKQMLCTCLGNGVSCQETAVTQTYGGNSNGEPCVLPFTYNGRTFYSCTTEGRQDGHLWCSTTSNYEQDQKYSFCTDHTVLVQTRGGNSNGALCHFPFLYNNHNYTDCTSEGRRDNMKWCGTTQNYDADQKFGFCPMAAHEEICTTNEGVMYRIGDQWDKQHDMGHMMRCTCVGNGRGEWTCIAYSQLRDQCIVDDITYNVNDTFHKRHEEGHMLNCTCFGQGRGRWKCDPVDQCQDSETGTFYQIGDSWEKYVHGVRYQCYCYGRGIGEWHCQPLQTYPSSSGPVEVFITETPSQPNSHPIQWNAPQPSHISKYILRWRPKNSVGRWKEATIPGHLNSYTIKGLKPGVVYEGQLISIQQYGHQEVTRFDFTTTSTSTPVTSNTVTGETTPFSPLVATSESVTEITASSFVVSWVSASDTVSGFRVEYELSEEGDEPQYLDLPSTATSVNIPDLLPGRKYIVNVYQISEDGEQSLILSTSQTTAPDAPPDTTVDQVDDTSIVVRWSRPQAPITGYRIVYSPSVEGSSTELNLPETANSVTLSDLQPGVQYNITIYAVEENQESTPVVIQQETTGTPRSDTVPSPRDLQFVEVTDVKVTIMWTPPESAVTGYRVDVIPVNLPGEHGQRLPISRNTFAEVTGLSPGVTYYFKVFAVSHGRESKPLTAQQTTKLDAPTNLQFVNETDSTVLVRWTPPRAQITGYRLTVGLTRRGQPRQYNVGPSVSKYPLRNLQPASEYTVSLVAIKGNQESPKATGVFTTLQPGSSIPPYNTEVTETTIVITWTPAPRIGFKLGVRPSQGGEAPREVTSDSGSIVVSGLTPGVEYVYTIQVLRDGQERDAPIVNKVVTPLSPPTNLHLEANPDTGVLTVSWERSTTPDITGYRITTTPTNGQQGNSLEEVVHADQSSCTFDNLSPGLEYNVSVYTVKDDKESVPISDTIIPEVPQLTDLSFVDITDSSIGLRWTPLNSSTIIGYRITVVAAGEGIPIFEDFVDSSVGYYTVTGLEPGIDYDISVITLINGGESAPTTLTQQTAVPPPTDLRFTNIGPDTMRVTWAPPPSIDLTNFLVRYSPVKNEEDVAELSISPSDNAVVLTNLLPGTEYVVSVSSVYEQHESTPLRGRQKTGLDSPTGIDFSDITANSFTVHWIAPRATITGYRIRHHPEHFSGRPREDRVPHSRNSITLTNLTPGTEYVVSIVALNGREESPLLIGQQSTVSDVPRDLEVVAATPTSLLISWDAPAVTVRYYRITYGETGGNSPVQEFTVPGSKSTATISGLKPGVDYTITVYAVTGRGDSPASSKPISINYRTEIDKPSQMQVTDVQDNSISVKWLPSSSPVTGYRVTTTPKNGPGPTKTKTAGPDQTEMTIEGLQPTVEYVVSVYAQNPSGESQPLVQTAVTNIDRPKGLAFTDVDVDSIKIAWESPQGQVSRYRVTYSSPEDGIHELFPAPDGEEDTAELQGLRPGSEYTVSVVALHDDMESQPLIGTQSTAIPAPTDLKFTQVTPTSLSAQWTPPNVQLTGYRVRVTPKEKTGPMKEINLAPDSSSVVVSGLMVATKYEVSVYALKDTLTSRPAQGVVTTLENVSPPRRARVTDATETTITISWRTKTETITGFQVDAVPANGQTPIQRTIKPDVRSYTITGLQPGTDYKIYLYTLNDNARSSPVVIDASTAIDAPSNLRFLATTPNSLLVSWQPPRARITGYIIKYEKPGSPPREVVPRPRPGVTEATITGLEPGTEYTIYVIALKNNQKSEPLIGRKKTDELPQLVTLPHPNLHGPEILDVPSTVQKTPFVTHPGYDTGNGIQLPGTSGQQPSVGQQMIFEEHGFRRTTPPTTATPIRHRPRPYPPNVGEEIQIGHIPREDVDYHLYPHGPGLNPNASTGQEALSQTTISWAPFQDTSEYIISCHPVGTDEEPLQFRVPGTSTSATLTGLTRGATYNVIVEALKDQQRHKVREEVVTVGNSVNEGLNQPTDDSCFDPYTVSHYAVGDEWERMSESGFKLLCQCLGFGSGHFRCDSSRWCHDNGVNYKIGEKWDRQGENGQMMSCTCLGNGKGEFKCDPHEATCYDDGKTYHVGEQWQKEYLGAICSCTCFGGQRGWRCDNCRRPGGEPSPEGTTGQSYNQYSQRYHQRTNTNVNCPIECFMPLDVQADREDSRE
# UniProt P04937, residues 25-2477: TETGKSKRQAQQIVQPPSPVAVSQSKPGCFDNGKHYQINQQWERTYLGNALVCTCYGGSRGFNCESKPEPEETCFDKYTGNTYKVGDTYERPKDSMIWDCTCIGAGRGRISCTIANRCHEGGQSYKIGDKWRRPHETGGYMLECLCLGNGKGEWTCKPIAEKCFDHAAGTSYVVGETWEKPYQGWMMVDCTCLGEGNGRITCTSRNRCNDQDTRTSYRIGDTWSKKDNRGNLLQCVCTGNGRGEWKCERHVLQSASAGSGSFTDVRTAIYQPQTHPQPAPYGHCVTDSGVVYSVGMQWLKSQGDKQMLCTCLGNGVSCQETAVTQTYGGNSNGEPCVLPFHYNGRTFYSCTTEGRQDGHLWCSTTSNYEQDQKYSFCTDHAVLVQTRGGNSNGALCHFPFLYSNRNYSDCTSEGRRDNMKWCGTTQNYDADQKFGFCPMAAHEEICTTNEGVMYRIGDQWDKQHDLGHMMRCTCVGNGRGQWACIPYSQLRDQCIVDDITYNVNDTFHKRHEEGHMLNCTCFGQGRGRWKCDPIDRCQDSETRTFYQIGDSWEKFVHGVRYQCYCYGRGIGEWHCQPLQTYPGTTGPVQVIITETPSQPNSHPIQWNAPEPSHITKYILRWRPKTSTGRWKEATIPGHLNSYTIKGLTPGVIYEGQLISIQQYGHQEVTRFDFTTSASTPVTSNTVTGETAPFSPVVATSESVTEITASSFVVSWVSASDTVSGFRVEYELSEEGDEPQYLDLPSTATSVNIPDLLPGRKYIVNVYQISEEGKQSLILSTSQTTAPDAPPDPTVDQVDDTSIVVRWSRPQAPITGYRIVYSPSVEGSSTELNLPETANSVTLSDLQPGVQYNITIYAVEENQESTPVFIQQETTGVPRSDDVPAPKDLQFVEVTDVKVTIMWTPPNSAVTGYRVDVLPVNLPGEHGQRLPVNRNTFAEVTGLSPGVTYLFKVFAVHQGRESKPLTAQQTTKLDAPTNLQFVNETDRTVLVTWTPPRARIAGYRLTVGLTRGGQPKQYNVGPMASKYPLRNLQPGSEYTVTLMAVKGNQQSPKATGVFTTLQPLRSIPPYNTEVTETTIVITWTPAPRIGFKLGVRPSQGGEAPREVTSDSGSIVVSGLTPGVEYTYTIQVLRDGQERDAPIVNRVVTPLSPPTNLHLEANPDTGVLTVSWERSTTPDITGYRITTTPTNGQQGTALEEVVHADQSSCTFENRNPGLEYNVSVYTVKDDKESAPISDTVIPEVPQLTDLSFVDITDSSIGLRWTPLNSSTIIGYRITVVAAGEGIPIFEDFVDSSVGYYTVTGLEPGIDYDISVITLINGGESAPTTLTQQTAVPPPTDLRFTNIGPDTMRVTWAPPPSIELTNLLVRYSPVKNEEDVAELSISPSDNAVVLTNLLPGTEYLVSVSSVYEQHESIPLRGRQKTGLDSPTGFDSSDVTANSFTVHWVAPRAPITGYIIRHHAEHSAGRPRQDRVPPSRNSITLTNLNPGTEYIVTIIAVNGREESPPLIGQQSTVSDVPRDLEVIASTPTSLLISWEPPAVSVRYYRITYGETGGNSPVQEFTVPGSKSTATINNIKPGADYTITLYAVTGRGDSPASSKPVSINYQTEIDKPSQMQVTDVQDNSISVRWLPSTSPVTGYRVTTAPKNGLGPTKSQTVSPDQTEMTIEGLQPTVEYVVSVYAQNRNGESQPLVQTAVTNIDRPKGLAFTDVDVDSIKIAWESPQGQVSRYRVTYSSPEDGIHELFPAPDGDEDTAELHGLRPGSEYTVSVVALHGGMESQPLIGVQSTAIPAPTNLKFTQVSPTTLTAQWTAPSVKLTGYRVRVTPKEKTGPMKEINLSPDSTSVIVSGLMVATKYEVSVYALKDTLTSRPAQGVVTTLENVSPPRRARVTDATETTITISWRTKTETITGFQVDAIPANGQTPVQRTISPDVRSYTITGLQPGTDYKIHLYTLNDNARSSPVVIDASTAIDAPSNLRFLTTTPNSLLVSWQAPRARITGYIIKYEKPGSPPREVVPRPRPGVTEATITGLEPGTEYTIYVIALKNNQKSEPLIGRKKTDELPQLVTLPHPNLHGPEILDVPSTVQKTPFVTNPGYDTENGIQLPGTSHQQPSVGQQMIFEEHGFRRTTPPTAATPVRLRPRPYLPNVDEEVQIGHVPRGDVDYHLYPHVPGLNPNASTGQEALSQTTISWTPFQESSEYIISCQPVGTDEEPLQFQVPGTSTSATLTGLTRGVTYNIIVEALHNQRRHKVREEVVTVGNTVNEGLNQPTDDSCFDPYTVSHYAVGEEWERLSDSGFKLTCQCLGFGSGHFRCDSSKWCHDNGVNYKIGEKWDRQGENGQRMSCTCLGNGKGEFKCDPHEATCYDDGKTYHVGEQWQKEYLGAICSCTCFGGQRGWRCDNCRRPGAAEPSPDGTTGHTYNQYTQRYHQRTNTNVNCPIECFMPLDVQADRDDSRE
# UniProt Q9QZK5, residues 23-480: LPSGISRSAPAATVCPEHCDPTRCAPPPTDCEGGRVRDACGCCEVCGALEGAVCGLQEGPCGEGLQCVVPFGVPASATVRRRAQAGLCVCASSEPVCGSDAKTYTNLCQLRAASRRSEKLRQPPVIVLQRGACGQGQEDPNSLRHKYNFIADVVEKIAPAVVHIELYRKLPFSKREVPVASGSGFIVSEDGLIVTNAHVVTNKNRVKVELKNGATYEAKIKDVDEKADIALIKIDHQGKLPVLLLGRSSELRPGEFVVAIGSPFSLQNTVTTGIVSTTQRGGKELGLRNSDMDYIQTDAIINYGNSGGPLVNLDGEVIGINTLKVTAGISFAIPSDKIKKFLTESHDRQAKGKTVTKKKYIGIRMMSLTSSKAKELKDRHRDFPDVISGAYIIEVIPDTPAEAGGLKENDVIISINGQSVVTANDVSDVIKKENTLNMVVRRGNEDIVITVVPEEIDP
# UniProt P34058: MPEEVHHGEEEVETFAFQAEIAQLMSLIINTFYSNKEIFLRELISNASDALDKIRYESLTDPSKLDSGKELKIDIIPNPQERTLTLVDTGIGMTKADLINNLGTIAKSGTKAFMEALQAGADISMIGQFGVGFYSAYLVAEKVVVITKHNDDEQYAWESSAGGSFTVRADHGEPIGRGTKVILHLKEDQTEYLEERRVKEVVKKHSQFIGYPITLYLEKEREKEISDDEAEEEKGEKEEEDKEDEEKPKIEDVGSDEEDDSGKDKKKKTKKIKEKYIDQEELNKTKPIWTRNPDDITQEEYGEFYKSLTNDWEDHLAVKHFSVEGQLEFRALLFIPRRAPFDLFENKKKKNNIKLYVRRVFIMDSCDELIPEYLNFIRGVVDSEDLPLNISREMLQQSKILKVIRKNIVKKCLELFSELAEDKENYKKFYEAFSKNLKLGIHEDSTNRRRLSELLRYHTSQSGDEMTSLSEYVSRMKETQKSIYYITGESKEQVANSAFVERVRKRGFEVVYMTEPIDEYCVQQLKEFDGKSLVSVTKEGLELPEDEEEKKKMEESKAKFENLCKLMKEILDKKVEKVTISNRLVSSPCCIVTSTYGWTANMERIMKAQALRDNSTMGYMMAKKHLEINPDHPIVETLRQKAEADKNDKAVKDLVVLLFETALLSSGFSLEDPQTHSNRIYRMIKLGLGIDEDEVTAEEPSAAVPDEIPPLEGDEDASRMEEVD
# UniProt Q9R1E9, residues 25-347: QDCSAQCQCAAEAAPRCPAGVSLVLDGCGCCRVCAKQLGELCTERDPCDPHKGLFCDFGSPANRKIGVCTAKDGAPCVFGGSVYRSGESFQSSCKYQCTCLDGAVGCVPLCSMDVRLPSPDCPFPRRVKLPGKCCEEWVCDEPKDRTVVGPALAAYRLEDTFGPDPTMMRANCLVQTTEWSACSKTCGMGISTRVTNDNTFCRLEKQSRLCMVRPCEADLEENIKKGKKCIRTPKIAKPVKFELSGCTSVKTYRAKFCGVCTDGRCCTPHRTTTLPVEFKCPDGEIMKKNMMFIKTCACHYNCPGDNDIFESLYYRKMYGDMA
# Results are given in words; binding and its absence hold for the method and conditions named. In cells and extracts the contact can be indirect. Some results given as binding are weak or reduced against the parent protein; the word gives no strength.
# B1: Protein CYR61 (protein, UniProt Q9ES72 25-379)
# chain: TCPAACHCPLEAPKCAPGVGLVRDGCGCCKVCAKQLNEDCSKTQPCDHTKGLECNFGASSTALKGICRAQSEGRPCEYNSRIYQNGESFQPNCKHQCTCIDGAVGCIPLCPQELSLPNLGCPNPRLVKVSGQCCEEWVCDEDSIKDSLDDQDDLLGFDASEVELTRNNELIAIGKGSSLKRLPVFGTEPRVLYNPLHAHGQKCIVQTTSWSQCSKSCGTGISTRVTNDNSECRLVKETRICEVRPCGQPVYSSLKKGKKCSKTKKSPEPVRFTYAGCSSVKKYRPKYCGSCVDGRCCTPLQTRTVKMRFRCEDGEMFSKNVMMIQSCKCNYNCPHPNEASFRLYSLFNDIHKFRD
# B2: Trifunctional enzyme subunit beta, mitochondrial (protein, UniProt Q60587 35-475)
# chain: SAPAVQTKSKKTLAKPNLKNIVVVEGVRIPFLLSGTSYKDLMPHDLARAALSGLLYRTNIPKDVVDYIIFGTVIQEVKTSNVAREAALGAGFSDKTPAHTVTMACISSNQAMTTAVGLIASGQCDVVVAGGVELMSDVPIRHSRNMRKMMLDLNKAKTLAQRLSLLTKFRLNFLSPELPAVAEFSTNETMGHSADRLAAAFAVSRMEQDKYALRSHSLAKKAQDEGHLSDIVPFKVPGKDTVSKDNGIRPSSLEQMAKLKPAFIKPYGTVTAANSSFLTDGASAMLIMSEDRALAMGYKPKAYLRDFIYVSQDPKDQLLLGPTYATPKVLEKAGLTMNDIDAFEFHEAFSGQILANFKAMDSDWFAQNYMGRKTKVGAPPLEKFNIWGGSLSLGHPFGATGCRLVMAAANRLRKDGGQYALVAACAAGGQGHAMIVEAYPK
# B3: Serpin H1 (protein, UniProt P29457 18-417)
# chain: AEVKKPVEAAAPGTAEKLSSKATTLAERSTGLAFSLYQAMAKDQAVENILLSPLVVASSLGLVSLGGKATTASQAKAVLSAEKLRDEEVHTGLGELVRSLSNSTARNVTWKLGSRLYGPSSVSFADDFVRSSKQHYNCEHSKINFRDKRSALQSINEWASQTTDGKLPEVTKDVERTDGALLVNAMFFKPHWDEKFHHKMVDNRGFMVTRSYTVGVTMMHRTGLYNYYDDEKEKLQLVEMPLAHKLSSLIILMPHHVEPLERLEKLLTKEQLKTWMGKMQKKAVAISLPKGVVEVTHDLQKHLAGLGLTEAIDKNKADLSRMSGKKDLYLASVFHATAFEWDTEGNPFDQDIYGREELRSPKLFYADHPFIFLVRDNQSGSLLFIGRLVRPKGDKMRDEL
# Molecular target: MS lesion-derived fibronectin aggregates (DOC-insoluble fraction of human brain tissue) (human (endogenous in brain tissue)) (UniProt P02751)
# Assay: co-sedimentation; deoxycholate (DOC) (in)solubility assay of homogenates of human control white matter, chronic (active) and chronic inactive MS lesions; DOC-insoluble and DOC-soluble fractions on Western blot under non-reducing conditions
row,Molecule,binding
1,thrombospondin-1 (human brain tissue) (from UniProt P07996 19-1170),binds

# Molecular target: deoxycholate (DOC)-insoluble fibronectin aggregates from primary rat astrocytes (rat (endogenous in primary astrocytes)) (UniProt P04937)
# Assay: co-sedimentation; DOC-insoluble fibronectin aggregates from deposits of activated rat astrocytes; SDS-PAGE under reducing conditions, in-gel trypsin digestion, LC-MS (LTQ Orbitrap XL), PEAKS; only proteins known or predicted to be secreted were kept
row,Molecule,binding
1,Serine protease HTRA1 (from UniProt Q9QZK5 23-480),binds
2,Heat shock protein HSP 90-beta (from UniProt P34058 1-724),binds
3,Connective tissue growth factor (from UniProt Q9R1E9 25-347),binds
4,B1,binds
5,B2,binds
6,B3,binds
